Measured values published in patent publication US20120100536A1.
These are yes or no findings as the source states them, for the method shown. Some results given as binding are weak or reduced against the parent protein; the word gives no strength.

The chains behind the UniProt entries cited, without tags or fusion partners. Where a name states a change or a piece, a line headed by the entry shows the natural chain unless it says otherwise. Residues count along the entry.
UniProt P01009, residues 25-418: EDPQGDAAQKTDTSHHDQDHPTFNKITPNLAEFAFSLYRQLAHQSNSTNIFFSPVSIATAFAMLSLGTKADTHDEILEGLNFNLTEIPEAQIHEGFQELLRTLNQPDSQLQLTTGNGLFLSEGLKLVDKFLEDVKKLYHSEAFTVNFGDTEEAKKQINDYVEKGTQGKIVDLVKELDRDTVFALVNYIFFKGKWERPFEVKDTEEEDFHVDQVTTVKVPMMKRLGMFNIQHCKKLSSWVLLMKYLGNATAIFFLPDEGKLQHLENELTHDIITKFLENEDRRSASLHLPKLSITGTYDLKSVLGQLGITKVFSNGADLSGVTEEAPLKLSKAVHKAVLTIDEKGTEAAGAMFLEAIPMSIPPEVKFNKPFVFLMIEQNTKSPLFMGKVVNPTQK
UniProt Q92743: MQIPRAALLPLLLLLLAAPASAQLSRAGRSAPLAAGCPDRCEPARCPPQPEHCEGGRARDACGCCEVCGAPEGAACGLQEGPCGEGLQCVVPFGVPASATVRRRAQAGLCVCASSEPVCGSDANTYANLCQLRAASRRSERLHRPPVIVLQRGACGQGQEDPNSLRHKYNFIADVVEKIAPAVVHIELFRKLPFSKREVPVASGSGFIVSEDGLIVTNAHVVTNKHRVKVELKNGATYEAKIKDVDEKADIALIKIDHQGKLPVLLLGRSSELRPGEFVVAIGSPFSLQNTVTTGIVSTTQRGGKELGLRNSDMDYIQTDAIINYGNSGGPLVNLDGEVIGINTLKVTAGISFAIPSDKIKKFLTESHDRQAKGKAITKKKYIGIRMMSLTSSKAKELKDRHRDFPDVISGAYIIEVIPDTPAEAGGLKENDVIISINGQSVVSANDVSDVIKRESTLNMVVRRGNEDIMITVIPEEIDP

Molecular target: α1-antitrypsin (UniProt P01009)
Assay: co-expression in HEK293, anti-V5 immunoblot of conditioned medium (covalent complex)

Row | binding | Substance
1 | binds | HTRA1 R370X with a V5 tag at the C-terminus (from UniProt Q92743 23-369) (enzyme)
2 | binds | wild-type HTRA1 with a V5 tag at the C-terminus (from UniProt Q92743 23-480) (enzyme)
